Experimental data: US20230065562A1, “DUAL CONTROLS FOR THERAPEUTIC CELL ACTIVATION OR ELIMINATION” (Bellicum Pharmaceuticals, Inc., priority 2015, published 2023)
For at least one compound, name, drawing or mass did not settle the structure.

Columns and labels:
293T cells = assay: SeAP reporter assay: FRBL-Caspase9 plus FKBPv12-Caspase9 heterodimerization; format: cell-based; conditions: FRBL-Caspase 9 plus FKBPV12-Caspase 9
Procedure: HEK 293T cells (5×10^5) were seeded on a 100-mm tissue culture dish in 10 mL DMEM4500, supplemented with glutamine, penicillin/streptomycin and 10% fetal calf serum. After 16-30 hours incubation, cells were transfected using Novagen's GeneJuice® protocol. Briefly, for each transfection, 0.5 mL OptiMEM was pipetted into a 1.5-mL microcentrifuge tube and 15 μL GeneJuice reagent added followed by 5 sec. vortexing. Samples were rested 5 minutes to settle the GeneJuice suspension. DNA (5 μg total) was added to each tube and mixed by pipetting up and down four times. Samples were allowed to rest for 5 minutes for GeneJuice-DNA complex formation and the suspension added dropwise to one dish of 293T cells. […]
24 hours after drug stimulation, 96-well plates were wrapped to prevent evaporation and incubated at 65° C. for 2 hours to inactivate endogenous and serum phosphatases while the heat-stable SeAP reporter remains (1, 4, 12). […] Phosphatase activity was measured by fluorescence with excitation at 355 nm and emission at 460 nm. […]
FIG. 37—Drug induced programmed cell death by homodimerization or heterodimerization of tagged caspase 9. […] Reporter activity is expressed as a percentage of the average of 8 control wells containing no drug. […]
FIG. 38—Rapalog-induced cell death switch. […] Reporter activity is expressed as a percentage of the average of 8 wells containing no drug. […]

[1] = system: iRmC9 T cells (pBP1327, GFP-Fluc); assay: Drug titration of rimiducid and rapamycin in mice bearing iRmC9 T cells; format: in vivo, mouse; conditions: NSG mice; rimiducid 0.00005-5 mg/kg or rapamycin 0.0001-10 mg/kg i.p.; FIGS. 110B & C
Procedure: In this experiment, iRmC9 T cells were produced by co-transduction with pBP1327 and GFP-Fluc retroviruses from donor 584. […] Ten million iRmC9 T cells were injected IV per mouse (Table 10) (time=−14 hr). […] Vehicle groups received either PBS, 25% solutol in PBS or 5% DMA in PT. IVIS imaging was performed at −10, 0, 6, and 24 hours. Mice were sacrificed and spleens were collected for FACS analysis with hCD3, hCD19 and mCD45 antibodies. […] This observation is similar to that observed in the previous experiment (FIG. 109B) and could be due to the components of the PT.
FIG. 110. […] PBMCs from donor 584 were activated and co-transduced with retroviruses encoding the pBP1327 vector and the GFP-Fluc plasmid. (FIG. 110A) Ten days post-transduction, the cells were analyzed for CD19 and GFP transduction efficiency prior to injection into mice. (FIGS. 110B & C) NSG mice were injected i.v. with 1×10^7 T cells co-transduced with GFP-Fluc per mouse and suicide drugs were injected i.p. the next day. Bioluminescence of cells was assessed at −10, 0, 6, and 24 hours post drug administration. (FIG. 110D) At 24 h post-drug treatment, mice were euthanized and spleens were collected for flow cytometry analysis with antibodies to hCD3, […], and mCD45.

293 cells = assay: SEAP assay: iMC (tandem FKBP) scaffold plus FRBL2-Caspase-9; format: cell-based; conditions: tandem FKBPs (iMC) present
Procedure: FIGS. 16A and 16B are line graphs showing that tandem FKBP scaffold mediates FRBL2. Caspase activation in the presence of rapalogs. FIG. 16A. HEK-293 cells were transfected with 1 μg each of SRα-SEAP reporter plasmid, Δmyr.iMC.2A-anti-CD19.CAR.CD3ζ (pBP0608), and FRBL2. Caspase-9 (pBP0467). […] After ON incubation, cell supernatants were assayed for SEAP activity, as previously described. FIG. 16B. Similar to the experiment described in (FIG. 16A), except that cells were transfected with a membrane-localized (myristoylated) iMC.2A-CD19.CAR.CD3ζ (pBP0609), instead of non-myristoylated Δmyr.iMC.2A-CD19.CAR.CD3ζ (pBP0608).
In a second test for rapalog-mediated scaffold-based activation of Caspase-9, 293 cells were transiently transfected with SRα-SEAP reporter plasmid, plus myristoylated or non-myristoylated inducible iMC co-expressed with 1st generation anti-CD19 CAR, plus FRBL2-fused Caspase-9 (plasmid pBP0467) (FIG. 16).

Q: How did the “cell death (loss of SeAP reporter)” value (293T cells) turn out when `CO[C@H]1C[C@@H]2CC[C@@H](C)[C@@](O)(O2)C(=O)C(=O)N2CCCC[C@H]2C(=O)O[C@H]([C@H](C)C[C@@H]2CC[C@@H](O)[C@H](OC)C2)CC(=O)[C@H](C)/C=C(\C)[C@@H](O)[C@@H](OC)C(=O)[C@H](C)C[C@H](C)/C=C/C=C/C=C/1C` [rapamycin] was run?
A: The value was “dose-dependent high efficacy cell death switch”.

Q: What about the “IVIS imaging of iRmC9 T cells in dose titration” value [1] of the same molecule?
A: The value was “unexpected increase in IVIS signal”.

Q: What about the “activation of FRBL2-Caspase-9” value (293 cells) of the same molecule?
A: The value was “activated”.
